Results deposited as PubChem BioAssay AID504793 (Drosophila RNAi Screening Center, 2011).
Purpose: 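Whole-genome screen for parts of the DNA damage checkpoint at G2/M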 (primary screen). System: Drosophila S2R+ cells. Knock-down reagent: long dsRNA against Drosophila genes, about 0.25 µg dsRNA per well. Timing: 4 days of dsRNA, then 4 hours of drug before read-out. Treatment: doxorubicin 0.5 µM for 4 hours to cause double-strand breaks, in cells also given a low, harmless dose of dsRNA against nbs to sensitise the assay. Measurement: 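Mitotic index as the number of phospho-histone H3-positive cells in each well following doxorubicin, given as raw counts without normalisation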. Direction: mitotic cells: higher = more cells in mitosis, weaker G2 arrest. Rule for the call: 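a call needs confirmation in secondary tests, with other dsRNAs and a check of mitotic timing without damage, not just a high primary count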. Calls: active = confirmed in follow-up tests; inactive = not confirmed.
In all, the deposit lists about 23,000 reagents; shown is a random part of those that have a named target and a result. In the full data, 62 (0.27%) got an active call. 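Calls come from follow-up tests whose scores are not deposited, so confirmed genes may have low counts here; counts are not normalised per plate.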 Raw values vary from plate to plate and are shown uncorrected. Reagents against one gene are numbered here. A plus sign joins genes that one reagent is predicted to hit.

gene | reagent | mitotic cells, replicate 1 | Outcome
Saf-B | 1 | 9 | inactive
Saf-B | 2 | 9 | inactive
Gr9a | 1 | 10 | inactive
Pngl | 1 | 11 | inactive
Hsp70Aa + Hsp70Bb + Hsp70Ba + 3 more | 1 | 9 | inactive
CG1092 | 1 | 3 | inactive
CG1092 | 2 | 2 | inactive
mRpS34 | 1 | 3 | inactive
mRpS34 | 2 | 9 | inactive
TwdlQ | 1 | 13 | inactive
TwdlQ | 2 | 7 | inactive
tomb + Cap-D3 | 1 | 4 | inactive
CG15082 | 1 | 9 | inactive
CG15082 | 2 | 6 | inactive
P32 | 1 | 8 | inactive
Ir94f | 1 | 6 | inactive
Sgt | 1 | 4 | inactive
Sgt | 2 | 4 | inactive
Cyp4aa1 | 1 | 6 | inactive
Cyp4aa1 | 2 | 8 | inactive
Gpo3 | 1 | 5 | inactive
CG32102 | 1 | 11 | inactive
AdamTS-B | 1 | 12 | inactive
AdamTS-B | 2 | 7 | inactive
Bet3 | 1 | 10 | inactive
Gba1b | 1 | 12 | inactive
Unc-76 | 1 | 10 | inactive
Unc-76 | 2 | 12 | inactive
CG13360 | 1 | 15 | inactive
CG13360 | 2 | 4 | inactive
cysu | 1 | 10 | inactive
cysu | 2 | 6 | inactive
CG31058 (retired record) | 1 | 7 | inactive
CG31058 (retired record) | 2 | 3 | inactive
Cyp4c3 | 1 | 9 | inactive
Cyp4c3 | 2 | 6 | inactive
CG42588 | 1 | 5 | inactive
CG42588 | 2 | 7 | inactive
CG42588 | 3 | 3 | inactive
CG18233 | 1 | 4 | inactive
porin | 1 | 6 | inactive
porin | 2 | 9 | inactive
CG14589 | 1 | – | inactive
CG13023 | 1 | 3 | inactive
ReepA | 1 | 6 | inactive
ReepA | 2 | 18 | inactive
ReepA | 3 | 2 | inactive
ReepA | 4 | 6 | inactive
Aplip1 | 1 | 4 | inactive
Aplip1 | 2 | 10 | inactive
Aplip1 | 3 | 7 | inactive
FER | 1 | 21 | inactive
FER | 2 | 6 | inactive
FER | 3 | 3 | inactive
Skeletor (retired record) | 1 | 3 | inactive
Skeletor (retired record) | 2 | 4 | inactive
pyx | 1 | 2 | inactive
pyx | 2 | 5 | inactive
pyx | 3 | 8 | inactive
Lim1 | 1 | 6 | inactive
CG2006 | 1 | 21 | inactive
Tsp42Ec | 1 | 5 | inactive
Tsp42Ec | 2 | 4 | inactive

18 consecutive entries from above, quoted:
gene | reagent | mitotic cells, replicate 1 | Outcome
CG42588 | 1 | 5 | inactive
CG42588 | 2 | 7 | inactive
CG42588 | 3 | 3 | inactive
CG18233 | 1 | 4 | inactive
porin | 1 | 6 | inactive
porin | 2 | 9 | inactive
CG14589 | 1 | – | inactive
CG13023 | 1 | 3 | inactive
ReepA | 1 | 6 | inactive
ReepA | 2 | 18 | inactive
ReepA | 3 | 2 | inactive
ReepA | 4 | 6 | inactive
Aplip1 | 1 | 4 | inactive
Aplip1 | 2 | 10 | inactive
Aplip1 | 3 | 7 | inactive
FER | 1 | 21 | inactive
FER | 2 | 6 | inactive
FER | 3 | 3 | inactive

The list goes on:
gene | reagent | mitotic cells, replicate 1 | Outcome
Hr51 | 1 | 3 | inactive
Hr51 | 2 | 16 | inactive
Polr3C | 1 | 6 | inactive
Polr3C | 2 | 3 | inactive
kst | 1 | 9 | inactive
eIF3l | 1 | 4 | inactive
eIF3l | 2 | 3 | inactive
Ost48 | 1 | 9 | inactive
Tet | 1 | 1 | inactive
Tet | 2 | 7 | inactive
Tsp68C | 1 | 8 | inactive
Tsp68C | 2 | 3 | inactive
yip2 | 1 | 6 | inactive
Uros1 | 1 | 5 | inactive
Uros1 | 2 | 5 | inactive
CG8677 | 1 | 4 | inactive
CG8677 | 2 | 2 | inactive
GstE14 | 1 | 7 | inactive
GstE14 | 2 | 5 | inactive
caz | 1 | 6 | inactive
caz | 2 | 9 | inactive
CG16995 | 1 | 7 | inactive
Pdk1 | 1 | 8 | inactive
Pdk1 | 2 | 9 | inactive
CG8492 | 1 | 9 | inactive
CG8492 | 2 | 23 | inactive
Nup205 | 1 | 2 | inactive
CG42741 | 1 | 7 | inactive
CG42741 | 2 | 9 | inactive
CG42741 | 3 | 10 | inactive
CG14050 | 1 | 5 | inactive
inaC | 1 | 7 | inactive
CG34367 | 1 | 6 | inactive
CG34367 | 2 | 8 | inactive
CG34367 | 3 | 6 | inactive
Gas8 | 1 | 8 | inactive
Gas8 | 2 | 2 | inactive
Setx | 1 | 6 | inactive
ftz | 1 | 1 | inactive
ftz | 2 | 2 | inactive
Dis3l2 | 1 | 6 | inactive
epsilonTry | 1 | 4 | inactive
epsilonTry | 2 | 5 | inactive
CNMa | 1 | 2 | inactive
prod | 1 | 5 | inactive
prod | 2 | 6 | inactive
CG15767 | 1 | 11 | inactive
CG15767 | 2 | 8 | inactive
